Experimental data as given in article PMC7948449.
These are yes or no findings as the source states them, for the method shown. In cells and extracts the contact can be indirect. Some results given as binding are weak or reduced against the parent protein; the word gives no strength.

Sequences of proteins named here, by UniProt entry; tags and fusion partners are left off.
UniProt Q9CVD2: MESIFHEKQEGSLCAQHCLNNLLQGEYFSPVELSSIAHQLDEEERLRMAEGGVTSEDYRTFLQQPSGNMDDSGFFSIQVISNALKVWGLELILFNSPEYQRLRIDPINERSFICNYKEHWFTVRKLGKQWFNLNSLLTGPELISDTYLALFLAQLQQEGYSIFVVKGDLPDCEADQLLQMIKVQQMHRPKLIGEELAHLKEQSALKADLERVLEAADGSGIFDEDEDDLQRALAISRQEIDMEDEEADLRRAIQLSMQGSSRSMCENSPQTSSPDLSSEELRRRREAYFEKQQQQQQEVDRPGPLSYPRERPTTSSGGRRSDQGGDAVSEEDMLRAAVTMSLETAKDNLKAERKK

Target: DNAJA1 (endogenous, mouse P03 cells) (mouse (endogenous in P03)) (UniProt P63037)
Experiment: co-IP; P03 cells treated with different concentrations of GY1-22 (or DMSO) for 24 h; lysate incubated overnight at 4 °C with anti-DNAJA1 antibody on protein A/G agarose; Western blot for mutp53, ataxin-3 and DNAJA1

## ataxin-3 (endogenous, mouse P03 cells) (from UniProt Q9CVD2 1-355)
  binding: binds
